# PubChem BioAssay AID2417 (National Center for Advancing Translational Sciences (NCATS), 2010)
# Hit rate of the full screen: of about 140,000 compounds, about 4,300 (3.1%) were called active. The inconclusive results got no clear call from the source; some entries with a clear call stand among them for comparison.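 Rule for the calls: active = readout at or below -70, meaning at least 70% loss of cells showing the perinucleolar compartment, a nuclear body marking cancer cells; inconclusive = readout between -30 and a set limit; inactive = the rest.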
# Experiment: High Content Assay for Compounds that inhibit the Assembly of the Perinucleolar Compartment;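 note: plate controls were DMSO wells for no effect and camptothecin positive control wells for full effect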
# Conditions: PC3M PTB-GFP, PNC prevalence imaging, 16 h; at 10 µM; stronger effect = lower value
# Procedure, shortened: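 Read-out is percentage of cells bearing a perinucleolar compartment, from automated 20x imaging of fixed, Hoechst-stained PC3M PTB-GFP cells. Cells were seeded 4 h, then exposed 16 h to compound (23 nl of library stock) in duplicate plates.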
row,Compound,"activity change (PNC), negative = inhibition"
1,COc1cc2c(cc1OC)C(c1ccncc1)CC(=O)N2 (stereo unspecified),inconclusive: -44.4%
2,Cc1c(C)c2ccc(OCC(=O)N(C)C)c(C)c2oc1=O,inconclusive: -31.3%
3,O=c1[nH][nH]c(-c2ccccc2)c1C=Nc1ccc(Cl)cc1,inconclusive: -38.7%
4,CCc1ccccc1NC(=O)N[C@H](C(=O)O)C(C)CC (stereo partly specified),inactive: -11.5%
5,O=C(COc1ccccc1Cl)N(Cc1ccco1)C1CCS(=O)(=O)C1 (stereo unspecified),active: -111%
6,CC1=NC(C(F)(F)F)(C(F)(F)F)C(C#N)=C(C)N1,inconclusive: -31.6%
7,CC(=O)c1ccc(OCC(O)CN2CCN(CCO)CC2)cc1 (stereo unspecified),inconclusive: -47.1%
8,Cc1[nH]n(-c2ccccc2)c(=O)c1/C=N/NC(=O)c1ccoc1C,inconclusive: -31.4%
9,Cc1cc(NC(=O)CN2CC(C)OC(C)C2)n(-c2nc3ccccc3s2)n1 (stereo unspecified),active: -99.2%
10,CC(C)(C)c1cc[n+](-c2nc([O-])sc2C=O)cc1,active: -113%
11,CCOC(=O)CSc1nc2ccc(NC(C)=O)cc2s1,inactive: -16.6%
12,COc1ccc(NC(=O)CCC(=O)OCc2ccc(C(=O)Oc3ccc(Cl)cc3)cc2)cc1,inconclusive: -36.6%
13,COC(=O)c1cc(NC(=O)c2ccoc2C)cc(C(=O)OC)c1,inconclusive: -34.8%
14,COc1cc(S(=O)(=O)N(Cc2ccc(C)cc2)C2CCCCC2)ccc1-n1cnnn1,inactive: 18.7%
15,O=C(O)/C=C\C(=O)Nc1ccccc1F,active: -119%
16,Cc1nn(-c2ccccc2)c(N)c1N=Nc1ccccc1,inactive: 1.71%
17,CC1CCN(C(=O)CSc2nnc(-c3ccc(S(=O)(=O)N4CCOCC4)cc3)n2C)CC1,active: -100%
18,Oc1c(C=C2N=c3ccccc3=N2)sc(=S)n1-c1ccc(F)cc1,inconclusive: -41.2%
19,COC(=O)C1=[N+]([O-])OC(C(=O)OC)C1c1c[nH]c2ccccc12 (stereo unspecified),inactive: 2.18%
20,c1ccc2nc3c(nc2c1)sc1nc2ccccc2n13,inactive: -14%
21,O=C(Nc1c(F)cc(F)cc1Br)c1ccco1,inconclusive: -71.6%
22,Oc1ccc(Br)cc1-c1cc(-c2ccc(Cl)cc2)n[nH]1,inconclusive: -62.9%
23,COc1ccc(-c2noc(C3CCCN(S(=O)(=O)c4cccc(Cl)c4)C3)n2)cc1OC (stereo unspecified),inconclusive: -45.4%
24,Cc1cccc(NS(=O)(=O)c2ccc(C3CCCCC3)cc2)n1,inconclusive: -41.2%
25,Cn1cccc1CC(=O)N/N=C/C=C/c1ccco1,inconclusive: -41.6%
26,COc1cc(C(=O)N2CCN(C(=O)COc3ccc4ccccc4c3)CC2)cc(OC)c1OC,inactive: -20.2%

# Given with bars between the fields: entries from further up
row | Compound | activity change (PNC), negative = inhibition
9 | Cc1cc(NC(=O)CN2CC(C)OC(C)C2)n(-c2nc3ccccc3s2)n1 (stereo unspecified) | active: -99.2%
12 | COc1ccc(NC(=O)CCC(=O)OCc2ccc(C(=O)Oc3ccc(Cl)cc3)cc2)cc1 | inconclusive: -36.6%
